Measurements from PubChem BioAssay AID485314 (National Center for Advancing Translational Sciences (NCATS), 2010).
Screen size: about 340,000 compounds; about 4,500 (1.3%) were called active. Inconclusive means that the source gave no clear call. Such entries were picked first, then a sample of the others. The call rests on the fitted dose curve; in most records, active means well fitted inhibition curve with a large enough effect; inconclusive means small, poorly fitted or top-dose-only effect, or another doubt; inactive means no such curve, though single readings can be large or run the other way. Where the call is inconclusive, the potency comes from a doubtful curve fit.

These compounds were tested against DNA polymerase beta (Homo sapiens) (UniProt P06746) (assay: qHTS Assay for Inhibitors of DNA Polymerase Beta). Conditions: Pol beta primer extension/strand displacement, fluorescence kinetic; activity change, negative = inhibition: at 114 µM (top of the series).
Procedure, shortened: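 Values derive from four-parameter Hill fits of normalized kinetic data: reads at 0 and 10 min following addition of 50 nM substrate to 10 nM Pol beta preincubated 15 min with compound.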
On the % scale 0 is the no-effect control and ±100 the full control effect; potency means the concentration at half of the fitted maximal effect.

| SMILES | Potency | activity change, negative = inhibition |
| --- | --- | --- |
| CCOc1ccc(CCNC(=O)CCCn2nc(C)c3sc4ccccc4c3c2=O)cc1 | inactive | – |
| Cc1cc(-c2csc(NC(=O)c3ccc(=O)[nH]c3)n2)c(C)n1Cc1ccccc1 | active: 20 µM | – |
| COc1ccccc1Cc1nc2ccccc2nc1SCC(=O)N(C)c1ccc(F)cc1 | inactive | – |
| CCOc1ccc(C2C(C(=O)c3ccco3)=C(O)C(=O)N2CCN2CCOCC2)cc1OCC (stereo not drawn) | inactive | – |
| CCOC(=O)CSc1nc2sc3c(c2c(=O)[nH]1)CCCC3 | inactive | – |
| N=C1/C(=C\c2coc3ccccc3c2=O)C(=O)N=C2SC(c3ccncc3)=NN12 | – | inconclusive: -102% [inhibitor] |
| O=C(N/N=C/c1cc([N+](=O)[O-])ccc1N1CCCCCC1)c1ccccn1 | inconclusive: 89.1 µM [inhibitor, single point] | – |
| COc1cc(C2/C(=C(\O)c3ccc4c(c3)CC(C)O4)C(=O)C(=O)N2CC2CCCO2)cc(OC)c1OC (stereo not drawn) | inactive | – |
| O=C(CSc1oc(-c2cccs2)nc1S(=O)(=O)c1ccccc1)NC1CCCCC1 | inconclusive: 25.1 µM [inhibitor, partial curve, poor fit] | – |
| COc1ccccc1N1CCN(C(=O)Cn2cnc3onc(-c4ccc(F)cc4)c3c2=O)CC1 | inconclusive: 89.1 µM [inhibitor, single point] | – |
| COCC(=O)Nc1sc2c(c1C(=O)OC)CCC(C)C2 (stereo not drawn) | inconclusive: 79.4 µM [inhibitor, single point] | – |
| O=C(O)c1c(CNCc2cccc(F)c2)c2ccccc2n1Cc1ccccc1 | inconclusive: 89.1 µM [inhibitor, single point] | – |
| CN(CCOc1ccccc1)CC(=O)Nc1ccc(S(=O)(=O)N2CCCC2)cc1 | inconclusive: 79.4 µM [inhibitor, single point] | – |
| Cc1cc(Cl)ccc1OCC(O)CN1C(C)CCCC1C (stereo not drawn) | inconclusive: 28.2 µM [inhibitor, single point] | – |
| CCOC(=O)c1c(C)[nH]c(=S)c(C#N)c1-c1ccc(OC)cc1 | inactive | – |
| Cc1ccccc1NC(=O)CCC(=O)N/N=C/c1cccnc1 | inconclusive: 11.2 µM [inhibitor, full curve, poor fit] | – |
| Cc1cc(-c2nc(C)c(C(=O)NNS(=O)(=O)c3ccc(Cl)cc3Cl)s2)no1 | inconclusive: 89.1 µM [inhibitor, single point] | – |
| CC(C)=CCc1c(O)ccc2c1OC(c1ccc(O)c(O)c1)CC2=O (stereo not drawn) | inconclusive: 25.1 µM [inhibitor, full curve] | – |
| CSc1nc(NCc2ccco2)c2sc3nc(C(C)C)c4c(c3c2n1)CC(C)(C)OC4 | inactive | – |
| O=C(Nc1ccc2c(c1)C(=O)NC2=O)c1ccccc1 | inactive | – |
| Cc1c(C(=O)N/N=C/c2cccnc2)nnn1-c1nonc1N | inactive | – |
| Cc1ccc(/C=N/N=C2\SCC(=O)N2CC2CC2)cc1 | inconclusive: 63.1 µM [inhibitor, single point] | – |
| O=C(N/N=C/c1ccc(F)cc1)c1cc(-c2ccco2)nc2ccccc12 | active: 3.55 µM | – |
| CC(C)(C)c1cc(=O)n(-c2ccccc2)[nH]1 | inconclusive: 31.6 µM [inhibitor, single point] | – |

Some values from the list:
Cc1c(C(=O)N/N=C/c2cccnc2)nnn1-c1nonc1N | Potency: inactive
CC(C)=CCc1c(O)ccc2c1OC(c1ccc(O)c(O)c1)CC2=O (stereo not drawn) | Potency: inconclusive: 25.1 µM [inhibitor, full curve]

The listing continues.

| SMILES | Potency | activity change, negative = inhibition |
| --- | --- | --- |
| Cc1cc(C)cc(-n2ccn(CC(=O)Nc3cc(C)ccc3C)c(=O)c2=O)c1 | inactive | – |
| CC1=NN2C(=N)/C(=C\c3ccc(SCc4ccccc4)o3)C(=O)N=C2S1 | inconclusive: 20 µM [inhibitor, full curve] | – |
| O=C(CCCSc1ccccc1)Nc1nc(-c2ccco2)c(-c2ccco2)s1 | inconclusive: 20 µM [inhibitor, full curve] | – |
| Cc1ccc(CN2CCN(Cc3cccn3-c3ccccn3)CC2CCO)o1 (stereo not drawn) | inconclusive: 89.1 µM [inhibitor, single point] | – |
| CCOc1ccc(OCC)c(NC(=O)c2ccc(-c3ccccc3)s2)c1 | inactive | – |
| C=CCn1c(SCC(=O)c2ccc(O)c(O)c2)nnc1-c1cccnc1 | active: 1.26 µM | – |
| CCOc1ccc(CCNC(=O)c2sc3ncccc3c2-n2cccc2)cc1OCC | inactive | – |
| Cc1cccc(NC(=O)C(=O)NCC(c2cccnc2)N2CCc3ccccc3C2)c1C (stereo not drawn) | inactive | – |
| Cc1oc(/N=C/c2cccc3ccccc23)c(C#N)c1C | inactive | – |
| CCOc1ccc(CC(=O)Nc2sc(Cc3ccccc3)c(C)c2C(N)=O)cc1OCC | inactive | – |
| O=C(N/C=C/c1ccco1)OCc1ccccc1 | inconclusive: 25.1 µM [inhibitor, full curve] | – |
| CN(C)Cc1n[nH]c(=O)c2ccccc12 | inconclusive: 79.4 µM [inhibitor, partial curve] | – |
| CCN1CCN(C(=O)c2cnn3c(C(F)F)cc(-c4ccc(C)cc4)nc23)CC1 | inconclusive: 35.5 µM [inhibitor, partial curve] | – |
| CC(NC(=O)CCSc1nc(-c2ccc3c(c2)OCO3)cc(C(F)(F)F)n1)c1ccccc1 (stereo not drawn) | inconclusive: 0.126 µM [inhibitor, full curve, poor fit] | – |
| CCN(Cc1ccccc1)C(=O)c1nn(-c2ccc(OC)cc2)c(=O)c2c1c1ccccc1n2C | inconclusive: 89.1 µM [inhibitor, single point] | – |
| Cc1cnccc1CN(C)Cc1cn(C)nc1-c1ccc(Oc2ccccc2)cc1 | inconclusive: 12.6 µM [inhibitor, full curve] | – |
| O=C(O)c1ccc2cccnc2c1O | inactive | – |
| Cc1ccccc1C(=O)Nc1nnc(S(=O)(=O)N(C)Cc2ccco2)s1 | inactive | – |
| O=C(CSc1nc(O)c(Cc2ccccc2)c(=O)[nH]1)Nc1ccccc1 | inconclusive: 0.562 µM [inhibitor, full curve, poor fit] | – |
| O=C(NN1C(=O)/C(=C/C=C/c2ccco2)SC1=S)c1ccccc1O | active: 1.12 µM | – |
| COCCNc1oc(-c2cccs2)nc1S(=O)(=O)c1ccc(C)cc1 | inconclusive: 89.1 µM [inhibitor, single point] | – |
| Cc1ncc(CN2CCCC(C(=O)Nc3ccc(-c4ccco4)cc3)C2)cn1 (stereo not drawn) | inactive | – |
| O=C(NNC(=O)C1CC(c2cccs2)=NO1)Nc1ccc(Cl)cc1 (stereo not drawn) | active: 44.7 µM | – |
| Cc1cc(C)c(S(=O)(=O)/N=C2/C=C(SCC(=O)O)C(=O)c3ccccc32)cc1C | inconclusive: 25.1 µM [inhibitor, single point] | – |
